Experimental data from article PMC9428752.
No constants are given. Whether binding was seen depends on the method and setting. Binding seen in cells or lysates may run through a third protein. Binding calls can cover weak binding; strength is not graded here.

Protein sequences, listed by entry. Tags and fused reporters are not part of them. Lines headed by an entry give the natural chain unless they say otherwise; changes in a name come on top. Residues count along the entry.
UniProt O00478, residues 30-584: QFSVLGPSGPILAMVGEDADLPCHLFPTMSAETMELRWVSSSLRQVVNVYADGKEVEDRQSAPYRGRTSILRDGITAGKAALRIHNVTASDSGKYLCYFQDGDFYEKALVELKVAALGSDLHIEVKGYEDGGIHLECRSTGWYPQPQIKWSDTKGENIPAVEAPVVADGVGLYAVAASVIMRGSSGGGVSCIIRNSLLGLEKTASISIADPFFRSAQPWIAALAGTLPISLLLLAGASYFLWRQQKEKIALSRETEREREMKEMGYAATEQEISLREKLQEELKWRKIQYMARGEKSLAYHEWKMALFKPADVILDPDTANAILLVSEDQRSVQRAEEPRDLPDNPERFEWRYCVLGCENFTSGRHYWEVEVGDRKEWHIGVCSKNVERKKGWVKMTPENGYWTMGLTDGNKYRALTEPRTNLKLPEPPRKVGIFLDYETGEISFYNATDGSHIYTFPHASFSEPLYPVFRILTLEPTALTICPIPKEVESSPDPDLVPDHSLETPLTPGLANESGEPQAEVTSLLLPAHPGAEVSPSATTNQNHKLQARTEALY
UniProt P09038: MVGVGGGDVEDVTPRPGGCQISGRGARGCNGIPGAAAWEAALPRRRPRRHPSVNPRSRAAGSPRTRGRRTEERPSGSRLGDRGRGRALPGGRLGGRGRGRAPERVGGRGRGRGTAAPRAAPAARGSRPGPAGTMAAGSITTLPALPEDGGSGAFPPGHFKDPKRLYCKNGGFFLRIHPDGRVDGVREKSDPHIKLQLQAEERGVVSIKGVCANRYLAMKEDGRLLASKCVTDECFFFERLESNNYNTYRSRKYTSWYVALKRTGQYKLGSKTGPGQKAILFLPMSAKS

Tests used:
[1] = target: 3 × Flag-BTN3A3 (Butyrophilin Subfamily 3 Member A3), expressed in 293T cells (UniProt O00478); experiment: co-IP; exogenous: 3 × Flag-BTN3A3 and 3 × HA-FGF2 plasmids co-transfected in 293T cells; Pierce IP Lysis Buffer, Protein A/G PLUS-Agarose beads, 4°C, Western blot
[2] = target: Butyrophilin Subfamily 3 Member A3 (BTN3A3), endogenous (human (endogenous in 3AO and NIH:OVCAR-3)) (UniProt O00478); experiment: co-IP; endogenous proteins in 3AO and NIH:OVCAR-3 cells; Pierce IP Lysis Buffer, primary antibody or control IgG, Protein A/G PLUS-Agarose beads, 4°C, Western blot

Row | binding [1] | binding [2] | Substance
1 | binds | – | 3 × HA-FGF2 (Fibroblast Growth Factor 2) (from UniProt P09038)
2 | – | binds | Fibroblast Growth Factor 2 (FGF2), endogenous (from UniProt P09038)
